Assay results published in patent US4661513A, “3-aminopropoxyphenyl derivatives, their preparation and pharmaceutical compositions containing them” (Louis; William John, priority 1982, dated 1987).
Some entries share one result that the patent states for a list of compounds.

These molecules were tested on tracheal preparations (guinea pig trachea) (assay: in vitro tracheal preparations of the guinea pig, relaxation under isoproterenol). Settings: guinea pig trachea vs atrium.
In the case of O=C(NCCNCC(O)COc1ccc(OCCOCC2CC2)cc1)C1CCCOC1 (centres unmarked) [Example 10], the “potency in tracheal preparations compared with the atrium” value (“potency … compared with the atrium” below) is reported as “less than in the atrium”.
COCCc1ccc(OCC(O)CNCCNC(=O)C2CCOCC2)c(C#N)c1 (centres unmarked) [Example 7] was tested, and the “potency … compared with the atrium” value was “less than in the atrium”.
With O=C(NCCNCC(O)COc1ccc(O)cc1)C1CCOCC1 (centres unmarked) [Example 15] the “potency … compared with the atrium” value was “less than in the atrium”.
COCCOc1ccc(OCC(O)CNCCNC(=O)C2CCCOC2)cc1 (centres unmarked) [Example 2] was tested, and the “potency … compared with the atrium” value was “less than in the atrium”.
With O=C(NCCNCC(O)COc1ccc(OCCOCC2CC2)cc1)C1CCOCC1 (centres unmarked) [Example 11] the “potency … compared with the atrium” value was “less than in the atrium”.
In the case of COCCc1ccc(OCC(O)CNCCNC(=O)C2CCOCC2)cc1 (centres unmarked) [Example 3], the “potency … compared with the atrium” value is reported as “less than in the atrium”.
With O=C(NCCNCC(O)COc1ccc(OCCOCC2CC2)cc1Br)C1CCCOC1 (centres unmarked) [Example 5] the “potency … compared with the atrium” value was “less than in the atrium”.
For O=C(NCCCNCC(O)COc1ccc(OCCOCC2CC2)cc1)C1CCOCC1 (centres unmarked) [Example 12], the “potency … compared with the atrium” value was “less than in the atrium”.
With O=C(NCCNCC(O)COc1ccc(O)cc1)C1CCCOC1 (centres unmarked) [Example 13] the “potency … compared with the atrium” value was “less than in the atrium”.
COCCc1ccc(OCC(O)CNCCNC(=O)C2CCCOC2)c(Br)c1 (centres unmarked) [Example 8] was tested, and the “potency … compared with the atrium” value was “less than in the atrium”.
In the case of COCCc1ccc(OCC(O)CNCCNC(=O)C2CCCOC2)cc1 (centres unmarked) [Example 1, 1-[4-(2-Methoxyethyl)phenoxy]-3-[2-(tetrahydropyran-3-ylcarbonylamino)ethylamino]-2-propanol], the “potency … compared with the atrium” value is reported as “less than in the atrium”.
For COCCc1ccc(OCC(O)CNCCNC(=O)C2CCCOC2)c(C#N)c1 (centres unmarked) [Example 9], the “potency … compared with the atrium” value was “less than in the atrium”.
COCCc1ccc(OCC(O)CNCCNC(=O)C2CCOCC2)c(Br)c1 (centres unmarked) [Example 4] was tested, and the “potency … compared with the atrium” value was “less than in the atrium”.
In the case of COCCOc1ccc(OCC(O)CNCCNC(=O)C2CCOCC2)cc1 (centres unmarked) [Example 6], the “potency … compared with the atrium” value is reported as “less than in the atrium”.
